PubChem BioAssay AID652243, Drosophila RNAi Screening Center – 2013

Test: 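Knock-downs that decrease or increase androgen receptor reporter signal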 (primary screen)
Cells: Drosophila S2R+ cells
Reagents: long dsRNA against Drosophila genes
Duration: 72 h (48 h, then 24 h hormone)
Challenge: synthetic androgen R1881 at 10 nM for 24 h
Detection: 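Firefly light from an androgen-responsive reporter and Renilla control light per well, raw and unnormalised, for each of two replicates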
Reading the numbers: firefly reporter light: higher = more light from androgen-responsive reporter; Renilla control light: higher = more constitutive control signal (cell number, transfection)
Hit rule: 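Across duplicate plates, a knock-down whose log firefly/Renilla ratio shifted a set fold down or up from the GFP/LacZ control mean was a hit; the downward cut appears as both 1.5 and 3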
Calls: active = hit: reporter lowered or raised; inactive = no hit
The screen tested about 24,000 reagents; shown is a random part of those that have a named target and a result. In the full data, 246 (1%) are marked active. 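Plates not normalised; calls are printed but the firefly/Renilla ratio behind them is not deposited; fold cut for lowering reported inconsistently.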 Raw values vary from plate to plate and are shown uncorrected. The numbers tell different reagents against one gene apart. No sequences are given here. Not stated in the record: the amount of reagent.

| gene knocked down | reagent | firefly reporter light, replicate 1 | firefly reporter light, replicate 2 | Renilla control light, replicate 1 | Renilla control light, replicate 2 | Call |
| --- | --- | --- | --- | --- | --- | --- |
| Nmt | 1 | 3.13e5 | 1.86e5 | 3.99e6 | 1.71e6 | inactive |
| Arc1 | 1 | 1.64e5 | 1.76e5 | 1.11e6 | 8.05e5 | inactive |
| Arc1 | 2 | 3.07e5 | 2.41e5 | 1.07e6 | 9.30e5 | inactive |
| CG5614 | 1 | 5.80e5 | 5.19e5 | 3.19e6 | 2.65e6 | inactive |
| CG7912 | 1 | 1.48e5 | 1.32e5 | 1.87e6 | 2.34e6 | inactive |
| mey | 1 | 62265 | 63868 | 6.11e5 | 4.64e5 | inactive |
| mey | 2 | 2.59e5 | 2.73e5 | 6.19e5 | 7.93e5 | inactive |
| CG14160 | 1 | 1.82e5 | 1.58e5 | 1.83e6 | 1.37e6 | inactive |
| CG6138 | 1 | 1.59e5 | 1.30e5 | 1.26e6 | 1.01e6 | inactive |
| eIF1 | 1 | 1.75e5 | 2.03e5 | 1.75e6 | 2.58e6 | inactive |
| eIF1 | 2 | 6.32e5 | 6.10e5 | 1.20e6 | 1.14e6 | inactive |
| RyR | 1 | 2.80e5 | 2.41e5 | 1.87e6 | 1.27e6 | inactive |
| CG43315 | 1 | 2.08e5 | 2.65e5 | 2.06e6 | 2.04e6 | inactive |
| Rbcn-3A | 1 | 3.46e5 | 3.33e5 | 2.87e6 | 2.20e6 | inactive |
| Rbcn-3A | 2 | 8.42e5 | 1.34e6 | 1.81e6 | 1.57e6 | inactive |
| Acp26Aa | 1 | 1.05e5 | 1.51e5 | 8.78e5 | 8.01e5 | inactive |
| mAChR-C | 1 | 2.43e5 | 2.98e5 | 3.48e6 | 3.51e6 | inactive |
| mAChR-C | 2 | 3.11e5 | 3.48e5 | 7.01e5 | 8.00e5 | inactive |
| fest | 1 | 57569 | 53100 | 9.95e5 | 1.09e6 | inactive |
| fest | 2 | 1.10e6 | 9.69e5 | 1.09e6 | 1.00e6 | inactive |
| GlcAT-S | 1 | 9.81e5 | 9.95e5 | 1.91e6 | 1.97e6 | inactive |
| GlcAT-S | 2 | 2.89e5 | 2.13e5 | 6.91e5 | 5.47e5 | inactive |
| CG8483 | 1 | 54786 | 1.07e5 | 6.44e5 | 5.70e5 | inactive |
| ppk7 | 1 | 2.08e5 | 1.19e5 | 1.63e6 | 1.17e6 | inactive |
| CG8507 | 1 | 1.09e5 | 1.09e5 | 2.06e6 | 1.89e6 | inactive |

Targets listed so far whose target name begins with F or f (2):
| gene knocked down | reagent | firefly reporter light, replicate 1 | firefly reporter light, replicate 2 | Renilla control light, replicate 1 | Renilla control light, replicate 2 | Call |
| --- | --- | --- | --- | --- | --- | --- |
| fest | 1 | 57569 | 53100 | 9.95e5 | 1.09e6 | inactive |
| fest | 2 | 1.10e6 | 9.69e5 | 1.09e6 | 1.00e6 | inactive |

More entries follow.
| gene knocked down | reagent | firefly reporter light, replicate 1 | firefly reporter light, replicate 2 | Renilla control light, replicate 1 | Renilla control light, replicate 2 | Call |
| --- | --- | --- | --- | --- | --- | --- |
| RpS3 | 1 | 1.33e5 | 1.55e5 | 1.47e6 | 1.42e6 | inactive |
| Snp | 1 | 3.21e5 | 3.01e5 | 2.00e6 | 1.74e6 | inactive |
| Snp | 2 | 7.66e5 | 7.03e5 | 2.04e6 | 1.99e6 | inactive |
| Klp10A | 1 | 60619 | 59668 | 4.80e5 | 4.91e5 | inactive |
| Klp10A | 2 | 4.10e5 | 2.54e5 | 3.40e5 | 4.00e5 | inactive |
| CG4596 | 1 | 89967 | 99762 | 1.74e6 | 1.90e6 | inactive |
| CG4596 | 2 | 3.63e5 | 3.61e5 | 5.86e5 | 5.46e5 | inactive |
| CG15169 | 1 | 98656 | 1.33e5 | 8.24e5 | 1.21e6 | inactive |
| CG4119 | 1 | 76220 | 98367 | 9.10e5 | 9.40e5 | inactive |
| CG4119 | 2 | 2.80e5 | 1.51e5 | 2.80e6 | 1.37e6 | inactive |
| syd | 1 | 7.32e5 | 6.35e5 | 1.79e6 | 1.63e6 | inactive |
| syd | 2 | 3.49e5 | 2.10e5 | 8.96e5 | 5.42e5 | inactive |
| CG15322 | 1 | 35810 | 39282 | 1.13e5 | 82263 | inactive |
| CG15322 | 2 | 8.86e5 | 9.17e5 | 1.17e6 | 1.68e6 | inactive |
| CG32425 | 1 | 41053 | 27903 | 5.47e5 | 4.26e5 | inactive |
| FucTA | 1 | 2.20e5 | 1.69e5 | 2.02e6 | 1.74e6 | inactive |
| Dad | 1 | 79504 | 60382 | 4.88e5 | 6.09e5 | inactive |
| Dad | 2 | 2.42e5 | 5.18e5 | 7.93e5 | 1.19e6 | inactive |
| Idh | 1 | 8.02e5 | 6.95e5 | 1.24e6 | 1.30e6 | inactive |
| CG15177 | 1 | 91444 | 62662 | 1.20e6 | 8.91e5 | inactive |
| CG15177 | 2 | 8.27e5 | 9.88e5 | 5.96e5 | 8.07e5 | inactive |
| CG5665 | 1 | 2.91e5 | 2.02e5 | 1.95e6 | 1.19e6 | inactive |
| CG13010 | 1 | 3.20e5 | 2.66e5 | 3.32e6 | 2.23e6 | inactive |
| CG13010 | 2 | 2.08e5 | 2.10e5 | 5.72e5 | 9.03e5 | inactive |
| CG17264 | 1 | 3.99e5 | 4.92e5 | 1.68e6 | 1.11e6 | inactive |
| CG17264 | 2 | 2.91e5 | 4.46e5 | 7.96e5 | 7.96e5 | inactive |
| Pgant6 | 1 | 1.10e6 | 1.19e6 | 2.34e6 | 2.45e6 | inactive |
| Pgant6 | 2 | 4.04e5 | 3.09e5 | 5.83e5 | 3.19e5 | inactive |
| Nplp1 | 1 | 1.25e6 | 5.81e5 | 1.71e6 | 1.04e6 | inactive |
| Nhe2 | 1 | 80821 | 1.01e5 | 1.19e6 | 1.12e6 | inactive |
| Nhe2 | 2 | 1.98e5 | 1.84e5 | 1.71e6 | 1.81e6 | inactive |
| CG32795 | 1 | 2.98e5 | 2.76e5 | 5.15e6 | 4.18e6 | inactive |
| CG32795 | 2 | 4.88e5 | 4.06e5 | 4.27e6 | 4.20e6 | inactive |
| Polr2I | 1 | 2.11e5 | 1.55e5 | 1.42e6 | 1.48e6 | inactive |
| ttm3 | 1 | 1.81e5 | 2.16e5 | 1.40e6 | 9.07e5 | inactive |
| Cyp4ac3 | 1 | 7.11e5 | 7.30e5 | 2.46e6 | 2.62e6 | inactive |
| CG32302 | 1 | 57070 | 66647 | 1.12e6 | 1.02e6 | inactive |
| RhoGAP93B | 1 | 1.94e5 | 3.34e5 | 2.99e6 | 3.53e6 | inactive |
| bw | 1 | 3.36e5 | 2.65e5 | 6.53e5 | 5.75e5 | inactive |
| bw | 2 | 4.49e5 | 7.16e5 | 1.15e6 | 1.34e6 | inactive |
| CG41497 (retired record) | 1 | 1.03e6 | 7.85e5 | 1.92e6 | 2.45e6 | inactive |
| CG6793 | 1 | 3.28e5 | 2.52e5 | 3.58e6 | 2.49e6 | inactive |
| CG6793 | 2 | 5.61e5 | 5.22e5 | 1.48e6 | 1.49e6 | inactive |
| CG7369 | 1 | 5.28e5 | 7.75e5 | 8.38e5 | 9.57e5 | inactive |
| CG11596 | 1 | 1.09e5 | 1.09e5 | 9.43e5 | 7.27e5 | inactive |
| CG11596 | 2 | 3.82e5 | 4.72e5 | 1.41e6 | 1.39e6 | inactive |
| CG17687 | 1 | 1.17e5 | 1.07e5 | 1.62e6 | 1.32e6 | inactive |
| CG17687 | 2 | 2.76e5 | 3.53e5 | 7.77e5 | 6.76e5 | inactive |
| TyrRS-m | 1 | 6.80e5 | 5.64e5 | 1.24e6 | 1.27e6 | inactive |
